Measurements reported in PubChem BioAssay AID686943 (Drosophila RNAi Screening Center, 2013).

- Assay: 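Fly genes whose loss alters ERK activation after insulin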 (primary screen)
- System: Drosophila S2R+ haemocyte-like cells expressing YFP-tagged ERK (Rolled)
- Reagent: long dsRNA against Drosophila genes
- Treatment: insulin stimulation versus unstimulated cells; dose and duration not given
- Measurement: 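Per-plate z-scores of phospho-ERK immunostaining normalised to YFP-tagged ERK, measured with and without insulin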
- Direction: replicate 1, z-score of dpERK with insulin: higher = more active ERK per ERK-YFP after insulin
The screen tested about 23,000 reagents; this is a random part of those with a known target gene and a result. 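Extra replicates exist only for a retested subset of genes; insulin dose and duration not given; both raised and lowered dpERK matter.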 Reagents against one gene are numbered here. Further read-outs or replicates are left out here. Not given: the amount of reagent, the time to read-out.

How did the screen score Nplp4?
replicate 1, z-score of dpERK with insulin: 0.58

With CG31259, how do the results read?
replicate 1, z-score of dpERK with insulin: -0.07

For Tsp42Ep, what does the deposit list?
replicate 1, z-score of dpERK with insulin: 0.17

With Toll-7, how do the results read?
replicate 1, z-score of dpERK with insulin: 0.42

For rost, what was measured?
replicate 1, z-score of dpERK with insulin: -0.52

For Cpr47Ef #1, how do the results read?
replicate 1, z-score of dpERK with insulin: 0.22

Which result is listed for Cpr47Ef #2?
replicate 1, z-score of dpERK with insulin: -0.34

With Arl6IP1, what does the deposit list?
replicate 1, z-score of dpERK with insulin: -0.93

What is on record for CG31627?
replicate 1, z-score of dpERK with insulin: -1.17

What did the screen give for Cyp317a1?
replicate 1, z-score of dpERK with insulin: 0.18

With Dna2, what was measured?
replicate 1, z-score of dpERK with insulin: -0.57

How did the screen score Nepl19?
replicate 1, z-score of dpERK with insulin: 0.6

With Sox14, how do the results read?
replicate 1, z-score of dpERK with insulin: -2.79

What did the screen give for plum?
replicate 1, z-score of dpERK with insulin: 0.44

For CG8768, how do the results read?
replicate 1, z-score of dpERK with insulin: -0.34

With Non2, what does the deposit list?
replicate 1, z-score of dpERK with insulin: -0.04

What did the screen give for Trp1?
replicate 1, z-score of dpERK with insulin: 0.8

How did the screen score CG1602?
replicate 1, z-score of dpERK with insulin: -0.5

With CSN4, what was measured?
replicate 1, z-score of dpERK with insulin: 0.26

What is on record for Mur82C #1?
replicate 1, z-score of dpERK with insulin: -3.76

With Mur82C #2, what was measured?
replicate 1, z-score of dpERK with insulin: 1.11

Looked up above.
Value for plum under “replicate 1, z-score of dpERK with insulin”: 0.44
For “replicate 1, z-score of dpERK with insulin”, Dna2 reads -0.57
Result of Mur82C #1 in “replicate 1, z-score of dpERK with insulin”: -3.76
